These are yes or no findings as the source states them, for the method shown. Binding seen in cells or lysates may run through a third protein. For part of these data: A result given as binding can be weak or reduced; the word gives no strength.

Test [1] concerns the target FZD1. The test is described as follows: co-IP, immunoblot (FIG. 3G). For orientation: Immunoblotting shows a protein as a band on a membrane.
For test [2], the target named is FZD7. The test is described as follows: co-IP, immunoblot (FIG. 3G).
Test [3] concerns the target FZD2. The test is described as follows: co-IP, immunoblot (FIG. 3G).
For test [4], the target named is FZD4. The test is described as follows: co-IP, immunoblot (FIG. 3G).
Test [5] addresses FZD8. The test is described as follows: co-IP, immunoblot (FIG. 3G).
The target in test [6] is FZD3. Kind of test: co-IP, immunoblot (FIG. 3G).
In test [7] the target is FZD6. The test is described as follows: co-IP, immunoblot (FIG. 3G).
The target in another test is SMO. The test is described as follows: co-IP, immunoblot (FIG. 3G).
Test [8] addresses FZD1. Kind of test: co-IP, immunoblot (recap of FIG. 3G).
The target of test [9] is FZD7. Kind of test: co-IP, immunoblot (recap of FIG. 3G).
Test [10] has as its target FZD2. Kind of test: co-IP, immunoblot (recap of FIG. 3G).
The target in test [11] is FZD4. The test is described as follows: co-IP, immunoblot (recap of FIG. 3G).
The target of test [12] is FZD8. Kind of test: co-IP, immunoblot (recap of FIG. 3G).
The target in test [13] is FZD3. The test is described as follows: co-IP, immunoblot (recap of FIG. 3G).
The target in test [14] is FZD6. Kind of test: co-IP, immunoblot (recap of FIG. 3G).

B1: TMEM79 (protein, not shown: small tags and cut ends)
chain: MTEPETLALLDMKEPETPEKSPPQALVLQSEEEGGTESPGTESLRVGSSVGSPIVREGPEDGPDSTISEAATLPWGTDPHPSAPLPDPPGWRDIEPEPLESEAPTKSEEPFKEDANLLPEKTVRAFVPIDLQCIERKPQEERILHRDAGPGELRNFLPARLSHPEPPERKWAEAVVRPPGRSCGGCGSCGGREALRAVASVVAALIFFPCLLYGAYAFLPFDAPRLPTMSSRLVYTLRCGVFATFPIVLGLLVYGLSLLCFSALRPFGEPRREVEIHRQYVAQSVQLFILYFFNLAVLSTYLPQDTLKLLPLLTGLFAISRLIYWLTFAVGRSFRGFGYGLTFLPLLAMLVWNLYYMFVVEPERMLTASESRLDYPDHARSVSDYRPRSWG
Turning to B1, the binding result with FZD1 [1], with FZD7 [2], with FZD2 [3], in the test with FZD4 [4], with FZD8 [5] and with FZD3 [6] was “binds” each time. Further, the binding entry is on record as “binds” with FZD6 [7]; “no binding” with SMO; “binds” with FZD1 [8]; “binds” with FZD7 [9]; “binds” with FZD2 [10]; “binds” with FZD4 [11]. Moreover, the binding entry with FZD8 [12], in the test with FZD3 [13] and with FZD6 [14] was “binds” throughout.
